The results in this text go back to patent US20150024388A1 (MALAYSIAN PALM OIL BOARD, published 2015).

In the assay the target is T1, rice OsMADS24, yeast two-hybrid construct (amino acids 2 to 177) (rice (Oryza sativa), UniProt Q9SAR1 2-177).
T1 construct: MADS-box, I and K domains; the C domain was left out; also called SEP protein family member OsMADS24; rice SEP family member
T1 sequence: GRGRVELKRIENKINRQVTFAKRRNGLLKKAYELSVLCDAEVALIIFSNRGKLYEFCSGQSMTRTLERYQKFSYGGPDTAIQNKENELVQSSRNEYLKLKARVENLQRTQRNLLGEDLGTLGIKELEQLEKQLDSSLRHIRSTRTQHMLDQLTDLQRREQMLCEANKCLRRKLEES
Kind of assay: yeast two-hybrid (growth on SD-Leu-Trp-His-Ade and blue colour on X-gal). From the text:
FIG. 3 Depicts the results from a yeast two-hybrid assay to identify SHELL binding partners. a, Legend for plating layout. Auto-activation controls: 1, shAVROS (BD)+pGADT7; 2, shMPOB (BD)+pGADT7; 3, OsMADS24 (BD)+pGADT7; 4 ShDeliDura+pGADT7. Interaction tests: 5, shAVROS (AD)+shAVROS (BD); 6, shAVROS (AD)+shMPOB (BD); 7, shAVROS (AD)+OsMADS24 (BD); 8, OsMADS24 (AD)+shAVROS (BD); 9, shMPOB (AD)+shAVROS (BD); 10, shMPOB (AD)+shMPOB (BD); 11, shMPOB (AD)+OsMADS24 (BD); 12, OsMADS24 (AD)+shMPOB (BD); 13, shAVROS (AD)+ShDeliDura (BD); 14, shMPOB (AD)+ShDeliDura (BD); 15, ShDeliDura (AD)+ShDeliDura (BD); 16, OsMADS24 (AD)+ShDeliDura (BD); 17, ShDeliDura (AD)+shAVROS (BD); 18, ShDeliDura (AD)+shMPOB (BD); 19, ShDeliDura (AD)+OsMADS24 (BD); 20, OsMADS24 (AD)+OsMADS24 (BD); A, pGBKT7-53+pGADT7-T (positive control); B, pGBKT7-lam+pGADT7-T (negative control). Co-transformants were plated on selective media, as labeled (b-d) and on X-gal media (e). Interaction assay results are summarized in Table 1 and Supplementary Table 1. […]
Co-transformations were performed for all 16 pairwise combinations of BD and AD vectors and scored for growth on SD-Leu-Trp, SD-Leu-Trp-His, SD-Leu-Trp-His-Ade and X-gal media plates. Positive interactions were scored as blue co-tranformants (on X-gal plate) that were able to grow on SD-Leu-Trp-His-Ade selection plates (FIGS. 1 and 2).

B1: SHELL protein encoded by the Sh^DeliDura allele, yeast two-hybrid construct (amino acids 2 to 175) (other)
chain: GRGKIEIKRIENTTSRQVTFCKRRNGLLKKAYELSVLCDAEVALIVFSSRGRLYEYANNSIRSTIDRYKKACANSSNSGATIEINSQQYYQQESAKLRHQIQILQNANRHLMGEALSTLTVKELKQLENRLERGITRIRSKKHELLFAEIEYMQKREVELQNDNMYLRAKIAEN
notes: MADS-box, I and K domains; the C domain was left out; also called Sh^DURA; wild-type SHELL
Regarding B1, the binding result is reported as “binds”.

B2: SHELL protein encoded by the sh^MPOB allele, yeast two-hybrid construct (amino acids 2 to 175) (other)
chain: GRGKIEIKRIENTTSRQVTFCKRRNGLPKKAYELSVLCDAEVALIVFSSRGRLYEYANNSIRSTIDRYKKACANSSNSGATIEINSQQYYQQESAKLRHQIQILQNANRHLMGEALSTLTVKELKQLENRLERGITRIRSKKHELLFAEIEYMQKREVELQNDNMYLRAKIAEN
notes: No position number is printed; Expressed as a pGADT7 (AD) or pGBKT7 (BD) fusion
B2: the binding result is on record as “no binding”.
